Experimental data reported in ChEMBL document CHEMBL1138013, “Parallel methods for the preparation and SAR exploration of N-ethyl-4-[(8-alkyl-8-aza-bicyclo[3.2.1]oct-3-ylidene)-aryl-methyl]-benzamides, powerful mu and delta opioid agonists” (Bioorg Med Chem Lett, 2004).

Test: Binding affinity against delta opioid receptor […]
Parameters: species or system Mus musculus

Work on `CN1CC[C@]23c4c5ccc(O)c4O[C@H]2[C@@H](O)C=C[C@H]3[C@H]1C5` [MORPHINE] yielded a Ki of 90 nM.
